Test results taken from article PMC4358367, “Structural basis of diverse membrane target recognitions by ankyrins” (eLife, 2014).
These are yes or no findings as the source states them, for the method shown. Some binding calls cover weakened binding; strength is not graded here.

Assays:
[1] = biological target: T1, AnkG_repeats (24 ANK repeats of rat 190 kDa ankyrin-G, residues 38–855) (rat) (UniProt O70511); experiment: ITC; VP-ITC at 25°C; 50 mM Tris pH 7.5, 100 mM NaCl, 1 mM EDTA, 1 mM DTT; binding partner (AS, Nav1.2 ABD proteins, neurofascin ABD; 200–300 µM) in the syringe, ANK repeats (20–30 µM) in the cell; one-site binding model; both purified
T1 sequence: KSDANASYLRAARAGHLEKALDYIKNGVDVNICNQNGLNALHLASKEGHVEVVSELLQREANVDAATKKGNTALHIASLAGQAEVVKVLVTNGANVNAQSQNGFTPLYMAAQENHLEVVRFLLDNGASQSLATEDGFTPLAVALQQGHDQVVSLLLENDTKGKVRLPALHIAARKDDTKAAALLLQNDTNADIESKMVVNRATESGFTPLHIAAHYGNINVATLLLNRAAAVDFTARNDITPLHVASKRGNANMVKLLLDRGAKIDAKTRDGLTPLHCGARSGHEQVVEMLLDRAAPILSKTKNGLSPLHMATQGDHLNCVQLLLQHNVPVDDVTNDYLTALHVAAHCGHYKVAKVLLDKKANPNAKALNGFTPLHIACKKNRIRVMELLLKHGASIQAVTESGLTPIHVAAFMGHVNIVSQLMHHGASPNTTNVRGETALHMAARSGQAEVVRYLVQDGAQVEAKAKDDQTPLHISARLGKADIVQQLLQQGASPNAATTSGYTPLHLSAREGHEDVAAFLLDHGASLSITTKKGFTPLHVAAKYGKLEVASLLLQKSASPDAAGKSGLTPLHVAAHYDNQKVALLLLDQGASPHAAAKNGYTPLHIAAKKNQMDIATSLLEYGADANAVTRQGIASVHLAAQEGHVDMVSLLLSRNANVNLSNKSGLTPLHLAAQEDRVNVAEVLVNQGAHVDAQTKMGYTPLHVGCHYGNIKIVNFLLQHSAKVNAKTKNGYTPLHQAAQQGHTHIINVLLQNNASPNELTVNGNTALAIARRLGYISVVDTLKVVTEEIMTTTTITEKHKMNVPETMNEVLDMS

[2] = biological target: T2, AnkR_repeats (24 ANK repeats of ankyrin-R, residues 42–853) (mouse) (UniProt Q02357); experiment: as above
T2 sequence: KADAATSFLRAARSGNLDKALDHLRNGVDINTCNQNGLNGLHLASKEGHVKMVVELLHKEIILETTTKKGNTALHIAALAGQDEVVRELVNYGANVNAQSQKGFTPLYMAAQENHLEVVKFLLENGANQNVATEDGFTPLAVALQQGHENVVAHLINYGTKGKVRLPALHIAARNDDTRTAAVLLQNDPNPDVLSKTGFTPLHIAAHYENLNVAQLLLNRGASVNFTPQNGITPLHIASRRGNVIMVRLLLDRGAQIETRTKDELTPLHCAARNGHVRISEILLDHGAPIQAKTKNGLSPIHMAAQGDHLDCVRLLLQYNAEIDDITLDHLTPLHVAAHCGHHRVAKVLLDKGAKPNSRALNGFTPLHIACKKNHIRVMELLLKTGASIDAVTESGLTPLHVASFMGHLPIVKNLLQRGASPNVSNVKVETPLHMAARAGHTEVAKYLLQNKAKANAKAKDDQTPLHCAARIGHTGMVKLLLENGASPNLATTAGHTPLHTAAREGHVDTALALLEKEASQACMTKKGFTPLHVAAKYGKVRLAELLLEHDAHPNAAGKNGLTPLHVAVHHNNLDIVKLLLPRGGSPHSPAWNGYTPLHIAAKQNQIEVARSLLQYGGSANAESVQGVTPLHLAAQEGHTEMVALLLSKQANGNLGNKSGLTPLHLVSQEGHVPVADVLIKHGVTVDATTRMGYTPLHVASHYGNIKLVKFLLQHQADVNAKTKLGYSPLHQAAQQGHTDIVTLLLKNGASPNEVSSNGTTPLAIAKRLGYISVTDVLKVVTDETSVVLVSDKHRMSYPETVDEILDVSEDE

[3] = biological target: T3, AnkB_repeats (24 ANK repeats of human 220 kDa ankyrin-B, residues 28–873) (human) (UniProt Q01484); experiment: 1H-13C HSQC NMR of the 13CH3-Met labeled fusion protein before and after thrombin cleavage; 0.35 mM AnkR_AS-AnkB_repeats fusion, with or without 50 µg/ml thrombin; 50 mM Tris pH 7.0, 100 mM NaCl, 1 mM DTT, 1 mM EDTA; 35°C; both purified
T3 sequence: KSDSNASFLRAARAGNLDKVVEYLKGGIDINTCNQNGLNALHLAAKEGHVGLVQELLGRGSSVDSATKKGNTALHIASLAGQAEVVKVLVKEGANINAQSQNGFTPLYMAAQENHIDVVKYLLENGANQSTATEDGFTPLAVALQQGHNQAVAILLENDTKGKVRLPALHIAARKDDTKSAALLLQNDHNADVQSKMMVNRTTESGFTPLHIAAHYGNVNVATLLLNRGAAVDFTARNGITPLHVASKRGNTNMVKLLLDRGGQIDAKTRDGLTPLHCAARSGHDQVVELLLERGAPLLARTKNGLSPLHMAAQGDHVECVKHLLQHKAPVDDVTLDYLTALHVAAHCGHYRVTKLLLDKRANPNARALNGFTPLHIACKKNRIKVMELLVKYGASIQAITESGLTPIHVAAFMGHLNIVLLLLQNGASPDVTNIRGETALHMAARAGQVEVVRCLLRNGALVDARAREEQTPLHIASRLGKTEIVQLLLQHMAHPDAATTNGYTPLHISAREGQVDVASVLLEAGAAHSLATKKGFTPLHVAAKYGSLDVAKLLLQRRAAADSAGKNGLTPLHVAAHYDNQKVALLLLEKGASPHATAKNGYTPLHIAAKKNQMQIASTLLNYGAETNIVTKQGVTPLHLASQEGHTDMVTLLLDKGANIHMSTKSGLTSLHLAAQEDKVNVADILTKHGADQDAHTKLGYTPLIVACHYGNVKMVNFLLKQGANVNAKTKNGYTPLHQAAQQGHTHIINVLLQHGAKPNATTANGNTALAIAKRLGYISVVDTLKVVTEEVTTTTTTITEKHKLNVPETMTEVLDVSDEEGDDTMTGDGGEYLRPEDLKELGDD

[4] = biological target: T3, AnkB_repeats (24 ANK repeats of human 220 kDa ankyrin-B, residues 28–873) (human); experiment: crystal structure; AnkR_AS fused at its C-terminus with AnkB_repeats on one chain (thrombin-site linker); Se-Met derivative refined at 3.5 Å; 0.5 M ammonium sulfate, 1.0 M lithium sulfate, 0.1 M sodium citrate pH 5.6, 16°C; both purified

binding [1]: binds
binding [2]: binds
binding [3]: binds
binding [4]: binds
B1: AnkR_AS (48-residue auto-inhibitory segment of AnkR, residues 1577–1624) (domain or fragment, mouse, UniProt Q02357-6 1577-1624, looked up)
chain: CADQYWNEVTVIDAIPLAATEHDTMLEMSDMQVWSAGLTPSLVTAEDS
notes: Free AS in ITC; source: E. coli BL21 (DE3), purified
